Test results: PubChem BioAssay AID1347076 (National Center for Advancing Translational Sciences (NCATS), 2019)
The whole screen tested about 400,000 compounds, of which about 13,000 (3.2%) were called active. This list was built around the results that the source calls inconclusive (neither active nor inactive); the mix of calls is not that of the screen. Calls follow the shape of the dose curve; as a rule, active = well fitted cell-killing curve with a large enough effect; inconclusive = small, poorly fitted or top-dose-only effect, or effect the other way; inactive = flat fitted curve, though single readings scatter. Potencies of inconclusive entries are doubtful fits and often do not repeat.

experiment: qHTS assay for MDR1-selective chemotherapeutics: Primary screen using the drug-selected MDR subline cells KB-V1; conditions: KB-V1 MDR cells viability, CellTiter-Glo, 72 h; activity change, negative = cytotoxicity: at 46.1 µM (top of the series); also: nearly all actives have a fitted effect of over 60% in size
Procedure, shortened: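 Compound-treated KB-V1 multidrug-resistant cells, 72 h, 37 degrees C; viability by CellTiter-Glo. Fitted qHTS curves give the values.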
% is scaled to controls: 0 for no effect and ±100 for the full control effect; potency is read from the fitted curve at half-maximal effect.

| SMILES | Potency | activity change, negative = cytotoxicity |
| --- | --- | --- |
| CCN(CC)S(=O)(=O)c1cccc(C(=O)N/N=C(\C)c2ccc(O)cc2O)c1 | inconclusive: 1.64 µM [cytotoxic, full curve, poor fit] | – |
| c1cc(CNCCNCc2ccncc2)ccn1 | inconclusive: 23.1 µM [rising, single point] | – |
| CN1C/C(=C/c2cccnc2)C(=O)/C(=C/c2cccnc2)C1 | active: 14.6 µM | – |
| O=C(C1CCC1)N1CCc2cc(S(=O)(=O)N3CCN(c4ccccc4)CC3)ccc21 | inactive | – |
| O=C(Nc1ccccc1N1CCCC1)c1ccc([N+](=O)[O-])o1 | inconclusive: 20.6 µM [cytotoxic, single point] | – |
| COc1cc(NC(=O)c2cccc3c2C(=O)N(Cc2cccnc2)C3)cc(OC)c1OC | inconclusive: 29.1 µM [cytotoxic, single point] | – |
| COC(=O)c1ccsc1NC(=O)CN1CCN(Cc2ccc3c(c2)OCO3)CC1 | active: 16.4 µM | – |
| CCc1ccc(-n2c(SCc3cc(=O)n4cc(Br)ccc4n3)nc3[nH]ncc3c2=O)cc1 | inconclusive: 18.4 µM [cytotoxic, single point] | – |
| Cc1cccc(C(=O)N2CCC(Cc3ccccc3)CC2)c1[N+](=O)[O-] | inconclusive: 29.1 µM [cytotoxic, single point] | – |
| CCCNC(=O)C1(C)CCN(C(=O)c2cc(F)cc(F)c2)C1 (configuration not stated) | inactive | – |
| Cc1cc(C(=O)Nc2ccccc2C(F)(F)F)no1 | inconclusive: 23.1 µM [rising, partial curve, poor fit] | – |
| Cc1ccc(-c2n[nH]c(=S)n2Cc2ccccc2)cc1 | inconclusive: 20.6 µM [cytotoxic, single point] | – |
| COc1ccc(S(=O)(=O)N2CCCCC2)cc1NC(=O)CNc1ccccc1C(C)=O | inconclusive: 29.1 µM [cytotoxic, single point] | – |
| CCC(C)NC(=O)Cn1c(=O)n(CC2CCC(C(=O)NC)CC2)c(=O)c2sccc21 (configuration not stated) | inconclusive: 29.1 µM [rising, single point] | – |
| O=C(O)c1ccc2c(c1)C(=O)N(CCc1ccccc1)C2=O | inconclusive: 8.2 µM [rising, single point] | – |
| COc1ccc(CCn2c(Br)nc3c2c(=O)[nH]c(=O)n3C)cc1 | active: 4.11 µM | – |
| CC(c1ccco1)N(C(=O)Nc1ccccc1)C1CCCCC1 (configuration not stated) | inconclusive: 20.6 µM [cytotoxic, partial curve, poor fit] | – |
| COc1ccc(-c2ccc(CN3C(C)C(=O)N(Cc4cn(CCC5OCCO5)nn4)CCS3(=O)=O)cc2)cc1 (configuration not stated) | inactive | – |
| Cc1ccccc1S(=O)(=O)N(C)C[C@H]1OCc2cn(nn2)CCCC(=O)N([C@H](C)CO)C[C@@H]1C | inactive | – |
| COCC(C)n1c(SCc2nc3ccccc3c(=O)[nH]2)nc2ccccc2c1=O (configuration not stated) | inconclusive: 2.91 µM [cytotoxic, full curve, poor fit] | – |
| Cc1nn(Cc2ccccc2Cl)c(C)c1NC(=O)CCCn1nc([N+](=O)[O-])c(Cl)c1C | inconclusive: 8.2 µM [cytotoxic, partial curve] | – |
| COc1ccc(N(C(=O)CNC(=O)c2ccco2)C(C(=O)NC2CCCC2)c2ccc(C)o2)cc1 (configuration not stated) | inconclusive: 16.4 µM [cytotoxic, single point] | – |
| CNC(=O)C[C@H]1C(=O)N(c2ccc(Br)cc2)C[C@@H]1CSC | – | inconclusive: -9.08% |
| CCOC(=O)c1nc(NCc2ccccc2F)c2ccccc2n1 | inconclusive: 29.1 µM [cytotoxic, single point] | – |

Compounds shown so far containing an NH in an aromatic ring, in the order listed:

| SMILES | Potency | activity change, negative = cytotoxicity |
| --- | --- | --- |
| CCc1ccc(-n2c(SCc3cc(=O)n4cc(Br)ccc4n3)nc3[nH]ncc3c2=O)cc1 | inconclusive: 18.4 µM [cytotoxic, single point] | – |
| Cc1ccc(-c2n[nH]c(=S)n2Cc2ccccc2)cc1 | inconclusive: 20.6 µM [cytotoxic, single point] | – |
| COc1ccc(CCn2c(Br)nc3c2c(=O)[nH]c(=O)n3C)cc1 | active: 4.11 µM | – |
| COCC(C)n1c(SCc2nc3ccccc3c(=O)[nH]2)nc2ccccc2c1=O (configuration not stated) | inconclusive: 2.91 µM [cytotoxic, full curve, poor fit] | – |

(further entries)

| SMILES | Potency | activity change, negative = cytotoxicity |
| --- | --- | --- |
| CC1CCN(c2nc3ccc(C(=O)NCCCN4CCCCC4C)cc3s2)CC1 (configuration not stated) | inactive | – |
| COc1cccc(CCc2nnc(CCC(=O)N(C)C3CC(C)(C)NC(C)(C)C3)o2)c1 | inactive | – |
| CN(Cc1ccccc1)C(=O)c1cc(S(=O)(=O)N2CCOCC2)cn1C | inactive | – |
| Cc1ccc(CNC(=O)c2ccc(S(=O)(=O)Nc3c(C)n(C)n(-c4ccccc4)c3=O)cc2)cc1 | inactive | – |
| COc1ccc2c(C)c(Cl)c(=O)oc2c1 | inactive | – |
| O=NN(CCCl)C(=O)NCC1=C[N+](=O)CC=C1 | inactive | – |
| CCOc1ccc(N(C)S(=O)(=O)c2cnc[nH]2)cc1 | inconclusive: 0.58 µM [rising, full curve] | – |
| COc1cccc(-c2cnc3c(NC(C)=O)cc(-c4cccc(C(=O)NCCN(C)C)c4)cn23)c1 | inactive | – |
| CCCc1nnc(N2C(=O)c3oc4ccc(F)cc4c(=O)c3C2c2ccc(C(=O)OC)cc2)s1 (configuration not stated) | inconclusive: 13 µM [rising, partial curve, poor fit] | – |
| Cc1noc(C)c1-c1ccc(C(=O)NCCc2ccccc2)c2occc12 | inconclusive: 18.4 µM [cytotoxic, single point] | – |
| NC(=O)NOCc1cccc(Cl)c1 | inactive | – |
| COc1nc(OC)nc(Oc2ccc(Cl)cc2[N+](=O)[O-])n1 | inactive | – |
| O=C(/C=C/c1ccc(N2CCCCC2)c([N+](=O)[O-])c1)c1ccc(O)cc1 | inconclusive: 20.6 µM [cytotoxic, single point] | – |
| Oc1ccccc1-c1nc(N2CCCC2)c2ccccc2n1 | inactive | – |
| CCc1nc(NC(=O)NS(=O)(=O)c2ccccc2C(=O)OC)nc(OC)n1 | inconclusive: 32.6 µM [rising, partial curve, poor fit] | – |
| Nc1cc(S(=O)(=O)Nc2ccc(Cl)cc2)ccc1N1CCOCC1 | inconclusive: 29.1 µM [cytotoxic, partial curve, poor fit] | – |
| Cc1cc(C2=NNC(=NC3CC3)SC2)c(C)n1Cc1ccco1 | active: 5.17 µM | – |
| Cc1ccc(-n2c(-c3ccncc3)n[nH]c2=S)c(C)c1 | inactive | – |
| COCCCNC(=O)CN1C(=O)COc2ccc(S(=O)(=O)N3CCCCCC3)cc21 | inconclusive: 1.64 µM [rising, full curve] | – |
| COCC(=O)N1CCC(Oc2ccc(C(=O)N(C)Cc3nccs3)cc2)CC1 | – | inconclusive: 6.4% |
| CCOC(=O)N1CCN(C(=O)C2CCCN(S(=O)(=O)c3cc(C)ccc3OC)C2)CC1 (configuration not stated) | inconclusive: 3.66 µM [cytotoxic, full curve] | – |
| OC(c1ccc(F)c(F)c1)c1nc(-c2ccc(F)c(Cl)c2)cs1 (configuration not stated) | inactive | – |
| CCCCCCC(=O)O | inactive | – |
| Cc1ccc(C(=O)c2c(C)oc3c2C(=O)C(=O)c2ccccc2-3)cc1 | active: 5.17 µM | – |

| SMILES | Potency | activity change, negative = cytotoxicity |
| --- | --- | --- |
| Ic1ccc(N2CCN(Cc3c[nH]c4ncccc34)CC2)cc1 | inactive | – |
| COc1ccc(-n2nnnc2C(c2ccccc2)N2CCN(C/C=C/c3ccccc3)CC2)cc1 (configuration not stated) | inconclusive: 25.9 µM [cytotoxic, single point] | – |
| CCn1c(SCc2ccc(C#N)cc2)nnc1-c1cccc(Cl)c1 | inconclusive: 20.6 µM [cytotoxic, single point] | – |
| O=C1CN(c2nc(-c3cccs3)nc3sc4c(c23)CCCC4)CCN1 | inconclusive: 5.17 µM [cytotoxic, partial curve] | – |
| Cc1ccc(NC(=O)CCc2c(C)nc3c(-c4ccccc4)c(C)nn3c2C)c(C)c1 | inactive | – |
| CCOc1ccccc1CNC(=O)c1ccc(NC(=O)C2=C(C)OCCS2)cc1 | inconclusive: 4.61 µM [cytotoxic, full curve, poor fit] | – |
| CCCNC(=O)CN(C)S(=O)(=O)c1ccc(F)cc1 | inconclusive: 18.4 µM [cytotoxic, partial curve, poor fit] | – |
| COc1cccc(NC(=O)c2cc(OC)c(OC)c(OC)c2Br)c1 | inconclusive: 29.1 µM [cytotoxic, partial curve, poor fit] | – |
| CCOC(=O)N1CCN(C(=O)CCc2ccc(S(=O)(=O)NCCc3ccccc3)cc2)CC1 | active: 16.4 µM | – |
| COc1ccc(-n2c(=O)c3ccccc3n(CC(=O)NCCc3ccccc3)c2=O)c(OC)c1 | inconclusive: 29.1 µM [cytotoxic, single point] | – |
| CC(C)Oc1ccc(C(=O)Nc2nc3ccccc3[nH]2)cc1 | inconclusive: 14.6 µM [cytotoxic, partial curve] | – |
| Cc1cc(N2C(=O)C3C4CCC(C4)C3C2=O)no1 (configuration not stated) | inconclusive: 14.6 µM [rising, single point] | – |
| Cc1cc2c(cc1C)NC(CC(=O)NCc1ccccc1)C(=O)N2 (configuration not stated) | inconclusive: 25.1 µM [cytotoxic, single point] | – |
| O=C1NC2(CCCCC2)N=C1c1ccc(Br)cc1 | inactive | – |
| O=C(NC(=O)N1CCN(c2cccc(Cl)c2)CC1)c1ccc(Cl)cc1 | inconclusive: 29.1 µM [cytotoxic, single point] | – |
| OC(c1ccccc1)(c1ccccc1)c1nccc2ccccc12 | active: 18.4 µM | – |
| COc1ccc(S(=O)(=O)N2CCOCC2)cc1C(=O)NCc1c(C)nn(Cc2ccccc2)c1C | inconclusive: 23.1 µM [cytotoxic, single point] | – |
| CN1CCN(CC(=O)Nc2ccccc2C(F)(F)F)CC1 | inconclusive: 20.6 µM [rising, single point] | – |
| CC(C)c1ccccc1NC(=O)CCCC(=O)O | inconclusive: 1.84 µM [rising, full curve, poor fit] | – |
| COc1ccc(CCC(=O)NNC(=O)Nc2ccccc2Cl)cc1 | inactive | – |
| COC(=O)c1ccccc1NC(=O)CN(c1ccccc1OC)S(C)(=O)=O | inconclusive: 18.4 µM [rising, single point] | – |
| CCn1nnc(NC(=S)NC(=O)c2ccc(-c3cccc(Cl)c3)o2)n1 | inactive | – |
| COc1ccc(C2=NN(c3nc(C)cc(C)n3)C(=O)C2)cc1 | inconclusive: 25.9 µM [cytotoxic, single point] | – |
| CC(C)C(=O)NC(C)C(c1cccs1)N1CCN(c2ccccc2)CC1 (configuration not stated) | active: 13 µM | – |
